# Experimental data reported in PMC4456659.
# Protein sequences, listed by entry. Tags and fused reporters are not part of them. Residues count along the entry.
# UniProt P60468: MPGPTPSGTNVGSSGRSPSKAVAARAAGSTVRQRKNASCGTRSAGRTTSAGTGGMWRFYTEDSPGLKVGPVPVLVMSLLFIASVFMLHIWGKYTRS
# UniProt O75460, residues 19-977: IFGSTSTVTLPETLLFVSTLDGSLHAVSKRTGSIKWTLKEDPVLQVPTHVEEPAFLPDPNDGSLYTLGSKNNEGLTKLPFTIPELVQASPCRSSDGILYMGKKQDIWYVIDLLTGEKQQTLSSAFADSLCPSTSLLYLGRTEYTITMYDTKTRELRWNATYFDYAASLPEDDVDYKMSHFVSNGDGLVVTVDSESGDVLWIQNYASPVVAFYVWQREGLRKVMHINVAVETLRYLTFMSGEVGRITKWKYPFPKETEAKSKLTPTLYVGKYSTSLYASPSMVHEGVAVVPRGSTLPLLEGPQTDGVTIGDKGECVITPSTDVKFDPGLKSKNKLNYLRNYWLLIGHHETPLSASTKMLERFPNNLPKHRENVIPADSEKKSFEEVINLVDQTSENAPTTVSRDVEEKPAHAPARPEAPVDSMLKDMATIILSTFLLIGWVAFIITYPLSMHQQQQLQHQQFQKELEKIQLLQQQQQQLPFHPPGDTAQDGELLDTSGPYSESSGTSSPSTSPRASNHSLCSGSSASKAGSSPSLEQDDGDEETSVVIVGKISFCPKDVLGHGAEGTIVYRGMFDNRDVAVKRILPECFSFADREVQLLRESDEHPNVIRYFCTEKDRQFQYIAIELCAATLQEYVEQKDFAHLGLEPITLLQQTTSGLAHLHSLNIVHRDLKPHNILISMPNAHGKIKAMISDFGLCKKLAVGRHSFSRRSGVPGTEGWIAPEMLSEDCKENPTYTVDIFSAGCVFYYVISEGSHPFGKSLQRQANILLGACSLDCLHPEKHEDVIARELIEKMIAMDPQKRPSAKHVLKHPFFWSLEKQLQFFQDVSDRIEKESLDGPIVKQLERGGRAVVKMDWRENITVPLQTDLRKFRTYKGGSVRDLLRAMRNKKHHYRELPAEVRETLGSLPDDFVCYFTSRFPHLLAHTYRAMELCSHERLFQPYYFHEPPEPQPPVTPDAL
# No constants are given. Whether binding was seen depends on the method and setting. Binding seen in cells or lysates may run through a third protein. Some results given as binding are weak or reduced against the parent protein; the word gives no strength.
# Molecular target: Sec61β (endogenous, HEK 293) (human (endogenous in HEK 293)) (UniProt P60468)
# Test: co-IP; non-transfected HEK 293 cells with or without 10 mM DTT for 2 hr, lysed in 50 mM Tris-HCl pH 8.0, 150 mM NaCl, 1% digitonin; IP with anti-Sec61β (control anti-GFP) on protein-A agarose; immunoblot
substance,measurement,value
endogenous Ire1α (from UniProt O75460 19-977) (enzyme),binding,binds
